In article PMC3823941:
Results are given in words; binding and its absence hold for the method and conditions named. Binding seen in cells or lysates may run through a third protein. Some entries that bind do so weakly or less than the wild type. Sequences can lack the tags named with a protein.

T1: Myc-Smo (Smoothened, full-length) (Drosophila) (UniProt P91682)
T1 sequence: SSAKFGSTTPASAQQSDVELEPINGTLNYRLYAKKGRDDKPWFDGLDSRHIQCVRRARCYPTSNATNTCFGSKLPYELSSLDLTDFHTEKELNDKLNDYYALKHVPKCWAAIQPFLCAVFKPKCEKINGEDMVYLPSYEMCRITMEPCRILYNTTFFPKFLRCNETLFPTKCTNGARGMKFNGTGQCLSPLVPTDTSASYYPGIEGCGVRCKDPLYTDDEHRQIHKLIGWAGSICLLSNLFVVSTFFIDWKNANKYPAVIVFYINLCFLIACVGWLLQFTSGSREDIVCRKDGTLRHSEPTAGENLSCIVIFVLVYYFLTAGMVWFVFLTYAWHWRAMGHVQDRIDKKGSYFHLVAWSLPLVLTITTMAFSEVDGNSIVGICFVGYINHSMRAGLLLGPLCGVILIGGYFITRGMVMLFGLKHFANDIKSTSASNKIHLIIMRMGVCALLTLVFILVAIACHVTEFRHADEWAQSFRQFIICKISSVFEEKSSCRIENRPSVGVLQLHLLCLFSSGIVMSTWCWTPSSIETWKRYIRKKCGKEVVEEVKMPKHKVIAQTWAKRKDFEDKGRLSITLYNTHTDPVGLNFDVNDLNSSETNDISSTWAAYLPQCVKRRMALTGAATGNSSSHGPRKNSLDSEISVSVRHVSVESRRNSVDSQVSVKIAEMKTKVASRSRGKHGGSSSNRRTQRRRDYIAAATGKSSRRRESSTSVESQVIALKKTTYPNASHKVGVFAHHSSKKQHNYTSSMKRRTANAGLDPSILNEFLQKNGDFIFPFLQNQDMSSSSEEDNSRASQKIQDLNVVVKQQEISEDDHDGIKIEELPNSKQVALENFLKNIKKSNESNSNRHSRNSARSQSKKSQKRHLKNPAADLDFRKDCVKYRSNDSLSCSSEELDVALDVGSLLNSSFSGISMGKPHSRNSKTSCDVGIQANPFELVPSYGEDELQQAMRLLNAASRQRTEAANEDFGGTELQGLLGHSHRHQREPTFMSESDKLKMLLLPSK

B1: HA-Hrs (full-length Hrs) (protein, UniProt Q960X8 1-760)
chain: MFRSSFDKNLENATSHLRLEPDWPSILLICDEINQKDVTPKNAFAAIKKKMNSPNPHSSCYSLLVLESIVKNCGAPVHEEVFTKENCEMFSSFLESTPHENVRQKMLELVQTWAYAFRSSDKYQAIKDTMTILKAKGHTFPELREADAMFTADTAPNWADGRVCHRCRVEFTFTNRKHHCRNCGQVFCGQCTAKQCPLPKYGIEKEVRVCDGCFAALQRPTSGSGGAKSGPRPADSELPAEYLNSTLAQQVQTPARKTEQELKEEEELQLALALSQSEAEQQKPKLQSLPPAAYRMQQRSPSPEAPPEPKEYHQQPEEATNPELAKYLNRSYWEQRKISESSSMASPSAPSPMPPTPQPQQIMPLQVKSADEVQIDEFAANMRTQVEIFVNRMKSNSSRGRSISNDSSVQTLFMTLTSLHSQQLSYIKEMDDKRMWYEQLQDKLTQIKDSRAALDQLRQEHVEKLRRIAEEQERQRQMQMAQKLDIMRKKKQEYLQYQRQLALQRIQEQEREMQLRQEQQKAQYLMGQSAPPFPYMPPSAVPQHGSPSHQLNNVYNPYAAGVPGYLPQGPAPAPNGHGQFQAIPPGMYNPAIQQPMPPNLQPGGLMQQPAPPGNPQMMPPMPENQFANNPAAILQLPQQHSIAQPPQIPFQPQPQQIPGQQPQQIPGQQPQQIPGQQPQQIPGQQPQQIPVQQPQPQPQMGHVMLQQHQAPPAAQAPPVTEIANNQVQAVAAAPAPPQNEPGPAPVKAEEPATAELISFD
B2: HA-HrsCT1 (domain or fragment, UniProt Q960X8 1-240)
chain: MFRSSFDKNLENATSHLRLEPDWPSILLICDEINQKDVTPKNAFAAIKKKMNSPNPHSSCYSLLVLESIVKNCGAPVHEEVFTKENCEMFSSFLESTPHENVRQKMLELVQTWAYAFRSSDKYQAIKDTMTILKAKGHTFPELREADAMFTADTAPNWADGRVCHRCRVEFTFTNRKHHCRNCGQVFCGQCTAKQCPLPKYGIEKEVRVCDGCFAALQRPTSGSGGAKSGPRPADSELPA
B3: endogenous Hrs (protein, UniProt Q960X8 1-760)
chain: B1 chain
B4: Hrs region aa 1-300 (VHS, FYVE and UIM domains), HA-tagged truncation (domain or fragment, UniProt Q960X8 1-300)
chain: MFRSSFDKNLENATSHLRLEPDWPSILLICDEINQKDVTPKNAFAAIKKKMNSPNPHSSCYSLLVLESIVKNCGAPVHEEVFTKENCEMFSSFLESTPHENVRQKMLELVQTWAYAFRSSDKYQAIKDTMTILKAKGHTFPELREADAMFTADTAPNWADGRVCHRCRVEFTFTNRKHHCRNCGQVFCGQCTAKQCPLPKYGIEKEVRVCDGCFAALQRPTSGSGGAKSGPRPADSELPAEYLNSTLAQQVQTPARKTEQELKEEEELQLALALSQSEAEQQKPKLQSLPPAAYRMQQRS
B5: HA-Hrs^ΔU (protein, UniProt Q960X8)
chain: MFRSSFDKNLENATSHLRLEPDWPSILLICDEINQKDVTPKNAFAAIKKKMNSPNPHSSCYSLLVLESIVKNCGAPVHEEVFTKENCEMFSSFLESTPHENVRQKMLELVQTWAYAFRSSDKYQAIKDTMTILKAKGHTFPELREADAMFTADTAPNWADGRVCHRCRVEFTFTNRKHHCRNCGQVFCGQCTAKQCPLPKYGIEKEVRVCDGCFAALQRPTSGSGGAKSGPRPADSELPAEYLNSTLAQQVQTPARKTEQEKPKLQSLPPAAYRMQQRSPSPEAPPEPKEYHQQPEEATNPELAKYLNRSYWEQRKISESSSMASPSAPSPMPPTPQPQQIMPLQVKSADEVQIDEFAANMRTQVEIFVNRMKSNSSRGRSISNDSSVQTLFMTLTSLHSQQLSYIKEMDDKRMWYEQLQDKLTQIKDSRAALDQLRQEHVEKLRRIAEEQERQRQMQMAQKLDIMRKKKQEYLQYQRQLALQRIQEQEREMQLRQEQQKAQYLMGQSAPPFPYMPPSAVPQHGSPSHQLNNVYNPYAAGVPGYLPQGPAPAPNGHGQFQAIPPGMYNPAIQQPMPPNLQPGGLMQQPAPPGNPQMMPPMPENQFANNPAAILQLPQQHSIAQPPQIPFQPQPQQIPGQQPQQIPGQQPQQIPGQQPQQIPGQQPQQIPVQQPQPQPQMGHVMLQQHQAPPAAQAPPVTEIANNQVQAVAAAPAPPQNEPGPAPVKAEEPATAELISFD

Tests used:
[1] = biological target: T1, Myc-Smo (Smoothened, full-length) (Drosophila); test: condition: only cells treated with okadaic acid (OA); co-IP; S2 cells transfected with HA-Hrs and Myc-Smo or Myc-Smo^SD123, treated with okadaic acid (OA); immunoprecipitation with anti-Myc, blot with anti-HA
[2] = biological target: T1, Myc-Smo (Smoothened, full-length) (Drosophila); test: co-IP; S2 cells co-transfected; lysis buffer 100 mM NaCl, 50 mM Tris.HCl pH8.0, 1.5 mM EDTA, 10% glycerol, 1% NP-40; immunoprecipitation with anti-Myc and protein A resin, western blot with anti-HA, anti-Hrs or anti-Flag; MG132 and NH4Cl to block Smo degradation; some samples with HhN-conditioned medium, USP8 overexpression or RNAi, Hrs overexpression or RNAi
[3] = biological target: T1, Myc-Smo (Smoothened, full-length) (Drosophila); test: co-IP; not shown: HrsCT1 with the series of Smo deletions

Binder	binding [1]	binding [2]	binding [3]
B1	no binding	binds	
B2		binds	binds
B3		binds	
B4		binds	
B5		binds	
